Measured values taken from paper PMC10805470.
Results are given in words; binding and its absence hold for the method and conditions named. In cells and extracts the contact can be indirect. Some binding calls cover weakened binding; strength is not graded here.

Chains of the proteins cited; added tags and fusions are not shown.
UniProt Q8R4B8: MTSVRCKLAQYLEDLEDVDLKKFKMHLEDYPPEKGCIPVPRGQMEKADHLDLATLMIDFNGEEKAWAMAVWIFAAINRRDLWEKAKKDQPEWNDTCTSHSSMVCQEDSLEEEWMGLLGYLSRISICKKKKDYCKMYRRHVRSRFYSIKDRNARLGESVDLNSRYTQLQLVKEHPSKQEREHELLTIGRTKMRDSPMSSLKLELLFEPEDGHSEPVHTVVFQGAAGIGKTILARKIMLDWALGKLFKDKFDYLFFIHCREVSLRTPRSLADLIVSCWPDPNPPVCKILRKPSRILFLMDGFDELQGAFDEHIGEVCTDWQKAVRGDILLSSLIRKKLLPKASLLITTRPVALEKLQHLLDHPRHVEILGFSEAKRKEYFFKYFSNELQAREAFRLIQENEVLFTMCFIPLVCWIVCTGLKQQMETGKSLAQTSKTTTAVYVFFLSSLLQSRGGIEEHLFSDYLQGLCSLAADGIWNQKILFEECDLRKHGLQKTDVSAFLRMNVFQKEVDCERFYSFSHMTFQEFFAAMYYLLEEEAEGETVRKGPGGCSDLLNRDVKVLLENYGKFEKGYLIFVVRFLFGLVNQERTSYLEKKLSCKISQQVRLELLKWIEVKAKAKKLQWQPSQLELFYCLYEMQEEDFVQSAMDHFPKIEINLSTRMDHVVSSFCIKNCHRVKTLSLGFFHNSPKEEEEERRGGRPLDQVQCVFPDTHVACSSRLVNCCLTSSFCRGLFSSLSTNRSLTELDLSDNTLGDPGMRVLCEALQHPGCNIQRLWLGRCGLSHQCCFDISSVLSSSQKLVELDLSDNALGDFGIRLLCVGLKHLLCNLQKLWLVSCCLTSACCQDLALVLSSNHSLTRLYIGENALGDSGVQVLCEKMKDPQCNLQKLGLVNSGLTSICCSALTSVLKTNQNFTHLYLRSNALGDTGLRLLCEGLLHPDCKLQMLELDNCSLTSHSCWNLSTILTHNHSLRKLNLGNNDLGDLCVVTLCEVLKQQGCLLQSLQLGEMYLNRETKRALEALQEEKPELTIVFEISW
UniProt Q60613: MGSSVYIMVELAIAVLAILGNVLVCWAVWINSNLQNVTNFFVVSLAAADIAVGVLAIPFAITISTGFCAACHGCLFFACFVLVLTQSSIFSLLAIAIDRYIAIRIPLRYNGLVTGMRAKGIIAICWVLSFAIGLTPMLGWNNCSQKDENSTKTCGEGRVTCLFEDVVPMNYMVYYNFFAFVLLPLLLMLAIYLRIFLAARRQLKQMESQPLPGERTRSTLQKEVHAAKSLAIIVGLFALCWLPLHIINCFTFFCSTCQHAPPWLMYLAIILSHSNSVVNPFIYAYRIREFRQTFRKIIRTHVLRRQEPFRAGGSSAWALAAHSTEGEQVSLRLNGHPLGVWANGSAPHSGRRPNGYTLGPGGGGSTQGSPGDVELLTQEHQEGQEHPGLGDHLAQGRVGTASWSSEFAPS

Target: nucleotide-binding oligomerization domain, leucine-rich repeat, and pyrin domain-containing protein 3 (mouse (endogenous in primary microglia)) (UniProt Q8R4B8)
Assay: co-IP; lysates of primary microglia (IP lysis buffer, protease inhibitors); anti-NLRP3 or anti-A2AR overnight at 4°C, Protein A/G magnetic beads, western blot; normal IgG as control; cells untreated, LPS (1 μg/mL, 3 h) + ATP (1 mM, 20 min), or pretreated with the A2AR agonist CGS21680 (100 nM, 30 min) before LPS + ATP

- binding: binds
Substance: Adenosine 2A receptor (from UniProt Q60613 1-410)
